For the test, the system named is L1210 leukemia ip in BDF1 mice, survival T/C. The test can be described thus: NCI In Vivo Anticancer Drug Screen. Data for tumor model L1210 Leukemia (intraperitoneal) in B6D2F1 (BDF1) mice. The following applies: T/C endpoint: mean survival time, higher T/C = longer survival.
Setting [1] is: dose: 100.0 mg/kg/injection, schedule: Q01DX009 (ip), vehicle: saline with Tween-80.
Where [2] appears, read: dose: 400.0 mg/kg/injection, schedule: Q01DX009 (ip), vehicle: Klucel (hydroxypropylcellulose) (HPC).
[3] abbreviates: dose: 100.0 mg/kg/injection, schedule: Q01DX001 (ip), vehicle: saline.
The mark [4] stands for this setting: dose: 100.0 mg/kg/injection, schedule: Q04DX003 (ip), vehicle: acetone.
The mark [5] stands for this setting: dose: 150.0 mg/kg/injection, schedule: Q01DX001 (ip), vehicle: saline.

The list does not hold the whole screen: it gathers tests that were run many times, whatever their T/C, doses with no T/C, and many T/C values between a quarter and a half above the control. Further doses and runs are listed elsewhere. T/C: endpoint of the treated group in % of that of the vehicle group. Some doses have a count of surviving animals in place of a T/C: the source holds a T/C of zero for them, seemingly a mark for toxic or unscored doses. Some survivor counts are full or nearly so, which does not show that the dose was tolerated: the source hardly ever lists a survival T/C far under the control, and the zero likely stands for such cases as well. Survivors were counted at the toxicity check, usually on the fifth day, unless a day is given; later deaths do not show. Schedules are NCI's codes, taken here to give the interval after Q, in days (D) or hours (H), and the number of doses after X. Some entries were tested several times; their values stand side by side, smallest first. Counts like (3×) say how often a value occurs here. For survival time, the PubChem record calls one and a half times the control and up active, and a quarter to a half above the control has no call in these data; cut-offs in other NCI protocols can differ. Some T/C values carry the count of animals alive at the toxicity check (mostly the fifth day); where none is given, no animal had died by that day.

Regarding `Cc1nc(N)nc(N)c1CCCc1ccccc1`, the survivor count by setting is: (dose: 12.5 mg/kg/injection, schedule: Q01DX001 (ip), vehicle: saline with Tween-80) 1 of 6; (dose: 25.0 mg/kg/injection, schedule: Q01DX001 (ip), vehicle: saline with Tween-80) 0 of 6 (2×); (dose: 50.0 mg/kg/injection, schedule: Q01DX001 (ip), vehicle: saline with Tween-80) 0 of 6; (dose: 100.0 mg/kg/injection, schedule: Q01DX001 (ip), vehicle: saline with Tween-80) 0 of 6.

Take `COc1ccc(C(O)CN)cc1` (stereo not drawn): the survivor count (dose: 100.0 mg/kg/injection, schedule: Q01DX009 (ip), vehicle: saline) is 5 of 6; the survivor count (dose: 400.0 mg/kg/injection, schedule: Q01DX009 (ip), vehicle: saline) is 4 of 6; the survivor count (dose: 400.0 mg/kg/injection, schedule: Q04DX003 (ip), vehicle: saline) is given as 3 of 6.

Regarding `COc1cc(OC)c(NC(=O)Nc2cccc(Cl)c2C)cc1Cl`, under setting [1], the T/C is 89 and 95 % of control; the survivor count was 3 of 3 and 6 of 6.

Take `O=C(N/C=C/NC(=O)NCc1ccco1)NCc1ccco1`: the survivor count under setting [2] is given as 6 of 6.

Take `NC(=S)N/N=C/c1ccc(Cl)cn1`: the survivor count is 0 of 10 (dose: 37.5 mg/kg/injection, schedule: Q01DX001 (ip), vehicle: saline with Tween-80); 3 of 10 (dose: 37.5 mg/kg/injection, schedule: Q04DX003 (ip), vehicle: saline with Tween-80); 0 of 10 (dose: 56.3 mg/kg/injection, schedule: Q01DX001 (ip), vehicle: saline with Tween-80).

`Cc1c[n+]([O-])c(C)cc1N=Nc1ccc(N(C)C)cc1`: the survivor count (dose: 400.0 mg/kg/injection, schedule: Q04DX002 (ip), vehicle: saline with Tween-80) is reported as 2 of 3.

Regarding `CCCCCCCCCCCCCCCCCCNC(=O)NCCN(C)c1ccccc1`, the survivor count reads like this: (dose: 200.0 mg/kg/injection, schedule: Q01DX009 (ip), vehicle: carboxymethylcellulose (CMC)) 3 of 3; (dose: 400.0 mg/kg/injection, schedule: Q01DX009 (ip), vehicle: carboxymethylcellulose (CMC)) 3 of 3 and 6 of 6.

In the case of `O=C(NCCCl)Nc1c2ccccc2nc2ccccc12`, the survivor count under setting [2] is listed as 0 of 6.

Take `Cc1cc(C(C(N)=O)c2ccccc2)ccc1N(CCCl)CCCl` (stereo not drawn): the T/C reads like this: (dose: 7.5 mg/kg/injection, schedule: Q01DX015 (ip), vehicle: carboxymethylcellulose (CMC)) 128 % of control; (dose: 8.0 mg/kg/injection, schedule: Q01DX009 (ip), vehicle: carboxymethylcellulose (CMC)) 131 % of control; (dose: 10.0 mg/kg/injection, schedule: Q01DX009 (ip), vehicle: Klucel (hydroxypropylcellulose) (HPC)) 131 % of control; (dose: 10.0 mg/kg/injection, schedule: Q04DX003 (ip), vehicle: acetone) 129 % of control; (dose: 15.0 mg/kg/injection, schedule: Q01DX015 (ip), vehicle: carboxymethylcellulose (CMC)) 139 % of control; (dose: 16.0 mg/kg/injection, schedule: Q01DX009 (ip), vehicle: carboxymethylcellulose (CMC)) 127 % of control. Also, the T/C reads like this: (dose: 16.5 mg/kg/injection, schedule: Q04DX003 (ip), vehicle: acetone) 126 % of control; (dose: 22.5 mg/kg/injection, schedule: Q01DX015 (ip), vehicle: carboxymethylcellulose (CMC)) 125 % of control; (dose: 30.0 mg/kg/injection, schedule: Q01DX015 (ip), vehicle: carboxymethylcellulose (CMC)) 128 % of control; (dose: 32.0 mg/kg/injection, schedule: Q01DX009 (ip), vehicle: carboxymethylcellulose (CMC)) 143 % of control; (dose: 33.0 mg/kg/injection, schedule: Q04DX003 (ip), vehicle: acetone) 129 [5 of 6 alive], 132, 138 % of control; (dose: 66.0 mg/kg/injection, schedule: Q01DX001 (ip), vehicle: saline) 129 % of control [4 of 6 alive]. Besides, the T/C under setting [3] is 130 % of control [5 of 6 alive]; the T/C under setting [4] is 132 % of control; the T/C (dose: 133.4 mg/kg/injection, schedule: Q01DX001 (ip), vehicle: carboxymethylcellulose (CMC)) is 129 % of control; the T/C under setting [5] is 128 % of control; the T/C (dose: 200.0 mg/kg/injection, schedule: Q01DX001 (ip), vehicle: carboxymethylcellulose (CMC)) is 129 and 137 % of control. For the same compound, the survivor count is, setting by setting: (dose: 60.0 mg/kg/injection, schedule: Q01DX015 (ip), vehicle: carboxymethylcellulose (CMC)) 6 of 6; (dose: 75.0 mg/kg/injection, schedule: Q01DX009 (ip), vehicle: saline with Tween-80) 0 of 6; (dose: 90.0 mg/kg/injection, schedule: Q01DX015 (ip), vehicle: carboxymethylcellulose (CMC)) 5 of 6; under setting [3], 3 of 6; (dose: 128.0 mg/kg/injection, schedule: Q01DX009 (ip), vehicle: carboxymethylcellulose (CMC)) 0 of 6; under setting [5], 2 of 6. The survivor count is 0 of 6 (dose: 150.0 mg/kg/injection, schedule: Q01DX009 (ip), vehicle: saline with Tween-80); 3 of 6 (dose: 200.0 mg/kg/injection, schedule: Q01DX001 (ip), vehicle: saline); 4 of 6 (dose: 225.0 mg/kg/injection, schedule: Q04DX003 (ip), vehicle: acetone); 2 of 4 (dose: 400.0 mg/kg/injection, schedule: Q01DX001 (ip), vehicle: carboxymethylcellulose (CMC)); 0 of 6 (dose: 400.0 mg/kg/injection, schedule: Q01DX001 (ip), vehicle: saline).

In the case of `CN=C(N)c1ccc(N=C(N)c2ccc(N=C(N)c3ccc(N=C(O)c4cccc(C(O)=Nc5ccc(C(N)=Nc6ccc(C(N)=Nc7ccc(C(N)=NC)cc7)cc6)cc5)c4)cc3)cc2)cc1`, the T/C by setting is: (dose: 3.25 mg/kg/injection, schedule: Q01DX015 (ip), vehicle: water) 128 % of control; (dose: 6.5 mg/kg/injection, schedule: Q01DX015 (ip), vehicle: water) 142 % of control; (dose: 26.0 mg/kg/injection, schedule: Q01DX015 (ip), vehicle: water) 148 % of control.

`Nc1cc([N+](=O)[O-])ccc1Nc1ccccc1`: the survivor count reads like this: (dose: 50.0 mg/kg/injection, schedule: Q01DX009 (ip), vehicle: DMSO) 6 of 6; (dose: 100.0 mg/kg/injection, schedule: Q01DX009 (ip), vehicle: DMSO) 0 of 6; (dose: 200.0 mg/kg/injection, schedule: Q04DX003 (ip), vehicle: DMSO) 0 of 6; (dose: 400.0 mg/kg/injection, schedule: Q04DX003 (ip), vehicle: DMSO) 0 of 6.

On to `CCN(CC)Cc1cc(Cl)cc(Cc2cc(Cl)cc(CN(CC)CC)c2O)c1O`, for which the survivor count under setting [4] is recorded as 4 of 6.

For `CCCCC/C(=N\OC(=O)NC)C(F)(F)F`, the survivor count by setting is: (dose: 75.0 mg/kg/injection, schedule: Q01DX001 (ip), vehicle: saline) 1 of 6; under setting [5], 0 of 6; (dose: 300.0 mg/kg/injection, schedule: Q01DX001 (ip), vehicle: saline) 0 of 6.

In the case of `CCNCc1ccc(OC)cc1`, the survivor count reads like this: (dose: 200.0 mg/kg/injection, schedule: Q04DX003 (ip), vehicle: saline with Tween-80) 2 of 6; (dose: 400.0 mg/kg/injection, schedule: Q04DX003 (ip), vehicle: saline with Tween-80) 0 of 6.

Source of the values: PubChem BioAssay AID248 (DTP/NCI, 2004).
